# In PubChem BioAssay AID1259415 (National Center for Advancing Translational Sciences (NCATS), 2018):
# In all, about 410,000 compounds went through this assay and about 18,000 (4.4%) were called active. The inconclusive results got no clear call from the source; some entries with a clear call stand among them for comparison. No stated cut-off is given here; in the data, active means activity change below about -60%; inconclusive means no clear call, values can overlap the other calls; inactive means above about -39%.
# Test: qHTS Assay for inhibitors of the human cytomegalovirus (HCMV)
# Conditions: HFF cells, HCMV-luciferase reporter, 72 h; at 57.5 µM; active compounds read low
# Method in brief: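 Cell-based, HFFs, 1000 cells/well, 16 h 37C; cpds in DMSO + HCMV-luc, MOI 1 PFU/cell; 72 h 37C; OneGlo luminescence after 5 min RT; norm. to buffer vs Salinomycin 10uM.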
# On the % scale 0 is the no-effect control and ±100 the full control effect.
row,Structure (SMILES),"activity change, negative = inhibition"
1,CCOC(=O)N1CCC(NS(=O)(=O)c2ccc(C)cc2)CC1,inconclusive: -56.8%
2,O=C(COC(=O)c1cn(-c2ccccc2)nc1-c1ccccc1)Nc1ncc(Cl)cc1Cl,inconclusive: -44.2%
3,Cc1sc(NC(=O)Cn2c(=O)oc3ccccc32)nc1-c1ccc(Cl)cc1,active: -60.5%
4,CCOC(=O)N/N=C/c1ccc(N(CC)CC)cc1O,inactive: 24%
5,S=C1NCN(CC2CC2)CN1,inactive: -6.28%
6,O=C1Nc2cc(Br)ccc2C1(O)c1ccccc1O (stereo unspecified),inconclusive: -46.7%
7,Cc1ccc(N(Cc2ccccc2)C(=O)c2ccc(C)c(S(=O)(=O)N3CCOCC3)c2)cc1,inconclusive: -42.1%
8,CCOc1cc(CNc2ccc(O)cc2)cc(Br)c1OCc1ccccc1,active: -104%
9,CC1CCCC(C)N1CCCNC(=O)C1CCCN(S(=O)(=O)N2CCCCC2)C1 (stereo unspecified),inconclusive: -57.3%
10,c1ccc(Cn2c(CNc3nc4ccccc4n3CCN3CCCCC3)nc3ccccc32)cc1,inactive: -1.7%
11,CN(C)CCCN(C(=O)/C=C/c1cccs1)c1nc2c(F)cccc2s1,inconclusive: -49.7%
12,COc1ccc(Cc2c(-c3cccc(Cl)c3)nc3ccc(Cl)cn23)c(C)c1,inactive: -23.1%
13,Oc1ccc(-c2nncn2-c2ccccc2)cc1,inconclusive: -44.2%
14,CCOC(=O)C1=C(CSc2nc(CC)c(C)cc2C#N)OC(N)=C(C#N)C1c1ccc(OC)cc1 (stereo unspecified),inactive: 25.3%
15,Cc1ccc(NC(=S)N(CCN(C)C)Cc2cccs2)c(C)c1,inconclusive: -42.3%
16,Cn1c(-c2ccsc2)cc2c(Nc3ccc(Oc4ccccc4)cc3)nccc21,active: -89.3%
17,N#CCCN(Cc1ccccc1)C(C(=O)NC1CCCCC1)c1cc2ccccc2o1 (stereo unspecified),active: -60.2%
18,CCNS(=O)(=O)c1ccc(CCC(=O)NCc2cccnc2)cc1,inconclusive: -53.5%
19,CC(C)CN(C(=O)COC(=O)CSc1ccc([N+](=O)[O-])cc1)C1CCS(=O)(=O)C1 (stereo unspecified),inconclusive: -48.8%
20,Clc1ccc(-c2noc(CN3CCOCC3)n2)cc1,inconclusive: -54.6%
21,COc1ccc(C(=O)C2CCCN(C(=O)Cn3nc(C)cc3C)C2)cc1F (stereo unspecified),inactive: -20%
22,CC(C)CCNC(=O)C1CCN(c2nc3ccccc3o2)CC1,inconclusive: -41.6%

row,Structure (SMILES),"activity change, negative = inhibition"
1,COc1ccccc1N(Cc1ccccc1)S(=O)(=O)c1cccc(C(=O)Nc2ncccc2C)c1,inconclusive: -42.6%
2,Cc1ccc(NC(=O)c2cc(C(C)(C)C)nn2Cc2ccccc2)cc1,inconclusive: -57.3%
3,O=[N+]([O-])c1cc2c(cc1/C=N\NS(=O)(=O)c1ccccc1)OCO2,active: -84.1%
4,Cn1nnnc1Sc1ncnc2scc(Br)c12,active: -97.4%
5,O=C(Nc1ccc(S(=O)(=O)N2CCOCC2)cc1)c1cc(-c2ccccc2O)n[nH]1,inconclusive: -41.1%
6,Cc1ccc(C(=O)n2c(N)nc3ccccc32)cc1,inconclusive: -59%
7,COc1ccc(-c2csc(C(O)c3ccc(OC)cc3)n2)cc1 (stereo unspecified),active: -71.8%
8,Cc1ccc(-c2cc(C(=O)Nc3ccc(S(=O)(=O)Nc4ncccn4)cc3)[nH]n2)c(O)c1C,inconclusive: -42.2%
9,O=c1[nH]c2ccc(NC(=S)Nc3ccc(Cl)cc3)cc2[nH]1,inconclusive: -47%
10,Cc1cc(=O)[nH]c(CN2CCOCC2)n1,inconclusive: -40.4%
11,Cc1cccc(CN2CCCC(C(=O)c3cccc(OC(C)C)c3)C2)n1 (stereo unspecified),inconclusive: -53.3%
12,COCCNc1nc(NCc2ccccc2F)c2sccc2n1,inconclusive: -41.2%
13,CC(C)Cn1c(N)c(C(=O)COC(=O)C2CC(=O)N(Cc3ccccc3Cl)C2)c(=O)n(C)c1=O (stereo unspecified),inconclusive: -48%
14,COc1ccc(OC)c(/C=C2\SC(=S)N(Cc3cccnc3)C2=O)c1,inconclusive: -48.3%
15,COc1cc2c(cc1OC)C(COc1ccccc1OC)N(C(=O)CC(C)C)CC2 (stereo unspecified),inactive: 1.91%
16,CC(C)(C)c1nc(N2CCN(C(=O)c3ccco3)CC2)c2nnn(Cc3ccccc3)c2n1,inconclusive: -55.8%
17,CSc1ccccc1OCc1cc(C(=O)N2CCc3c(Cl)cccc3C2)no1,inconclusive: -41.2%
18,CCn1c(/C=C/c2cc(Br)ccc2O)nc2ccccc2c1=O,active: -93.3%
19,CCOc1ccc(-c2cc(C(=O)NCCCN3CCOCC3)c3ccccc3n2)cc1,inactive: 0%
20,CN(Cc1ccc(F)cc1)C(=O)c1sccc1-c1ccccc1,inconclusive: -45.8%
21,CC(C)c1ccc(NC(=O)c2cc3c(s2)-c2ccccc2SC3)cc1,inconclusive: -53.9%
22,Cc1cc(-c2nn(-c3ccccc3)cc2/C=C2\SC(N)=NC2=O)ccc1OC(C)C,inconclusive: -56.7%

row,Structure (SMILES),"activity change, negative = inhibition"
1,Brc1ccc2nc(C3CCCCC3)c(CC3CCCCC3)n2c1,inactive: -25.7%
2,CCOC(=O)c1c(C)[nH]c(CCC(=O)NCCCN2CCN(c3ccc(F)cc3)CC2)c1C,inactive: -32.9%
3,COc1ccc([N+](=O)[O-])cc1NC(=O)COC(=O)C=C(C)C,inconclusive: -51.4%
4,COc1cccc(NC(=O)CN(C)C(=O)c2ccccc2-c2nc3ccccc3s2)c1,inactive: 2.48%
5,Cc1ccc(C(=O)Nc2sc3c(c2C(=O)O)CCCC3)o1,active: -61.8%
6,COc1ccc(C2CC(c3cccs3)=NN2C(=O)c2ccc(Br)o2)cc1 (stereo unspecified),inconclusive: -45.8%
7,CCOc1ccc(N(C(=O)c2snc(C(N)=O)c2N)C(CC)C(=O)NC2CCCC2)cc1 (stereo unspecified),inactive: 5.71%
8,COc1cccc(OC)c1C(=O)NC(=O)Nc1c(F)cc(F)cc1F,inactive: -5.49%
9,O=C(CSc1nnc(-c2cccnc2)o1)Nc1nccs1,inactive: 11.4%
10,CCOC(=O)c1c(S(=O)(=O)NCC(=O)Nc2ccccc2OC)c(C)n(C)c1C,inconclusive: -48.8%
11,CCOc1ccc(NC(=O)c2ccc3c(SCC(=O)O)c4c(nc3c2)CCCC4)cc1,inconclusive: -46.7%
12,O=S1(=O)CCOC[C@H](CC2CCCCC2)N1Cc1cccc(F)c1,inconclusive: -45.1%
13,Cn1nnnc1SCCNS(=O)(=O)c1ccccc1,inactive: 6.65%
14,CCOc1ccc(CCNC(=O)COC(=O)c2nc3nc(C)cc(C)n3n2)cc1OCC,inconclusive: -41.7%
15,COCCOC(=O)C1=C(N)Oc2c(oc(CO)cc2=O)C1c1c(F)cccc1Cl (stereo unspecified),inactive: 13.1%
16,Cc1ccc(CN2C(=O)C(Cc3ccccc3)Nc3ncnc(N4CCOCC4)c32)cc1 (stereo unspecified),inactive: -19.6%
17,Cc1ccc(CNC(=O)c2cc(COc3c(F)cccc3F)on2)s1,inconclusive: -49.8%
18,C=C1CC[C@@H]2[C@](C)(CO)[C@H](O)CC[C@@]2(C)[C@@H]1/C=C/C1=CCOC1=O,inconclusive: -52.3%
19,CC(OC(=O)C1=COCCO1)C(=O)c1ccc(C(C)(C)C)cc1 (stereo unspecified),inactive: -6.97%
20,COc1ccc(/C=C/C(=O)N(C)Cc2cccs2)cc1S(=O)(=O)N1CCOCC1,inconclusive: -47.2%
21,Cn1cc(S(=O)(=O)c2cccc(Cl)c2)c(=O)c2cc(F)c(N3CCCCCC3)cc21,inconclusive: -51%
22,CCCCOC(=O)Cn1c(=O)c2c(nc(Br)n2Cc2ccccc2)n(C)c1=O,inactive: -4.52%

# Sorted by length of the SMILES (smallest number first): 16 of the compounds above.
row,Structure (SMILES),"activity change, negative = inhibition"
13,Cn1nnnc1SCCNS(=O)(=O)c1ccccc1,inactive: 6.65%
9,O=C(CSc1nnc(-c2cccnc2)o1)Nc1nccs1,inactive: 11.4%
1,Brc1ccc2nc(C3CCCCC3)c(CC3CCCCC3)n2c1,inactive: -25.7%
5,Cc1ccc(C(=O)Nc2sc3c(c2C(=O)O)CCCC3)o1,active: -61.8%
17,Cc1ccc(CNC(=O)c2cc(COc3c(F)cccc3F)on2)s1,inconclusive: -49.8%
8,COc1cccc(OC)c1C(=O)NC(=O)Nc1c(F)cc(F)cc1F,inactive: -5.49%
12,O=S1(=O)CCOC[C@H](CC2CCCCC2)N1Cc1cccc(F)c1,inconclusive: -45.1%
3,COc1ccc([N+](=O)[O-])cc1NC(=O)COC(=O)C=C(C)C,inconclusive: -51.4%
6,COc1ccc(C2CC(c3cccs3)=NN2C(=O)c2ccc(Br)o2)cc1 (stereo unspecified),inconclusive: -45.8%
22,CCCCOC(=O)Cn1c(=O)c2c(nc(Br)n2Cc2ccccc2)n(C)c1=O,inactive: -4.52%
15,COCCOC(=O)C1=C(N)Oc2c(oc(CO)cc2=O)C1c1c(F)cccc1Cl (stereo unspecified),inactive: 13.1%
4,COc1cccc(NC(=O)CN(C)C(=O)c2ccccc2-c2nc3ccccc3s2)c1,inactive: 2.48%
16,Cc1ccc(CN2C(=O)C(Cc3ccccc3)Nc3ncnc(N4CCOCC4)c32)cc1 (stereo unspecified),inactive: -19.6%
7,CCOc1ccc(N(C(=O)c2snc(C(N)=O)c2N)C(CC)C(=O)NC2CCCC2)cc1 (stereo unspecified),inactive: 5.71%
2,CCOC(=O)c1c(C)[nH]c(CCC(=O)NCCCN2CCN(c3ccc(F)cc3)CC2)c1C,inactive: -32.9%
18,C=C1CC[C@@H]2[C@](C)(CO)[C@H](O)CC[C@@]2(C)[C@@H]1/C=C/C1=CCOC1=O,inconclusive: -52.3%

# (next part)

row,Structure (SMILES),"activity change, negative = inhibition"
1,CCOc1ccc(C(=O)Nc2ccc(S(=O)(=O)N3C[C@@H]4C[C@@H](C3)c3cccc(=O)n3C4)cc2)cc1,inconclusive: -57.3%
2,COc1cccc(CNC(=O)c2cc3c(C)nc4ccccc4c3o2)c1,inconclusive: -47.9%
3,O=C(NNc1ncccc1Cl)c1c(Cl)cccc1Cl,active: -67.2%
4,CSc1ncccc1C(=O)OCC(=O)c1ccccc1Br,inconclusive: -43%
5,Cc1nc2c(-c3ccc(Cl)cc3)c(C)[nH]n2c(=O)c1Cc1ccccc1,active: -99.1%
6,CN(C)C(CNC(=O)CSc1nc2sc3c(c2c(=O)n1C)CCCC3)c1ccccc1 (stereo unspecified),inactive: -27.3%
7,OC(c1ccccc1)(c1ccccc1)C1CCN(CCCOc2ccc(C(F)(F)F)cc2)CC1,active: -81%
8,Cc1cccc(N/C(N)=N/c2nc(C(F)(F)F)cc(C(F)(F)F)n2)c1,inconclusive: -44%
9,COc1ccccc1-c1sc2cc3c(cc2c1C#CCO)OCO3,inconclusive: -52.6%
10,Clc1ccccc1-c1cc(COc2ccc3ccccc3c2)no1,inconclusive: -49%
11,Cc1ccc(-n2c([O-])nc(-[n+]3ccccc3)c2C=O)cc1,active: -72.1%
12,CCn1ccnc1CNC(=O)c1ccc2oc(CCCc3ccccc3)nc2c1,inconclusive: -41.2%
13,Cc1cc(NS(=O)(=O)c2ccc(NC(=O)c3c(F)c(F)c(F)c(F)c3F)cc2)nc(C)n1,inconclusive: -42.2%
14,COc1ccc(Nc2nc(NCc3ccco3)nc(N/N=C/c3ccc(O)cc3)n2)cc1,active: -61%
15,COc1ccc(OC)c(NC(=O)C2CCCN(S(=O)(=O)c3c(C)nn(C)c3C)C2)c1 (stereo unspecified),inconclusive: -56.9%
16,CCn1c(SCC(=O)Nc2cc(OC)c(OC)c(OC)c2)nnc1-c1cccs1,inconclusive: -45%
17,CCc1nc2ccc(C(=O)Nc3ccc(NC(C)=O)cc3)cn2c1N(CCC(C)C)CCN(C)C,inactive: -4.41%
18,CC(C)C[C@H](NC(=O)c1nc[nH]c1C(=O)N[C@@H](CCCCNC(=O)OC(C)(C)C)C(=O)OC(C)(C)C)C(=O)OC(C)(C)C,inconclusive: -41.7%
19,COc1ccc2ccccc2c1-c1sc(Nc2ccccc2)n[n+]1-c1ccc(F)cc1,inconclusive: -59.1%
20,CC(=O)c1c(C)[nH]c(C(=O)NC(C)c2ccccc2)c1C (stereo unspecified),inconclusive: -52.7%

# Compounds from the list above that contain a COOH group:
row,Structure (SMILES),"activity change, negative = inhibition"
5,Cc1ccc(C(=O)Nc2sc3c(c2C(=O)O)CCCC3)o1,active: -61.8%
11,CCOc1ccc(NC(=O)c2ccc3c(SCC(=O)O)c4c(nc3c2)CCCC4)cc1,inconclusive: -46.7%
